{"source": "paper PMC4252900", "key": {"[1]": {"molecular_target": "T1, NRF2 (endogenous, HER2-amplified breast cancer cells) (human (endogenous in AU-565 and SK-BR-3)) (UniProt Q16236)", "T1 sequence": "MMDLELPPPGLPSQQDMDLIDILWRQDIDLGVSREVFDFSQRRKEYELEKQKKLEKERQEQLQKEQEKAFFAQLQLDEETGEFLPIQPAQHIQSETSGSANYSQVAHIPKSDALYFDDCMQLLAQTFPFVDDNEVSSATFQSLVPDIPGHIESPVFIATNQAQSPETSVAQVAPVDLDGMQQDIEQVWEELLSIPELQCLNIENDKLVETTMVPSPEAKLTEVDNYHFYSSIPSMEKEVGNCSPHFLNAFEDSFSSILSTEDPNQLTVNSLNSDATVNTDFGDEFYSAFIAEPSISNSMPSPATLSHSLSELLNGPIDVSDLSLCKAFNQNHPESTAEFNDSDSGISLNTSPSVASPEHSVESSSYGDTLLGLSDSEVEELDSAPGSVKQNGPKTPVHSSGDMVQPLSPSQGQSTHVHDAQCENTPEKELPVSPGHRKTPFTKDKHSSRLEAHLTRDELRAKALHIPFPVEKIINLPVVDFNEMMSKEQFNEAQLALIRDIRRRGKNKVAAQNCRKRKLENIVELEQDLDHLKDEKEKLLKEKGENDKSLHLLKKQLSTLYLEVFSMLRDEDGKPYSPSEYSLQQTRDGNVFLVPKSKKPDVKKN", "assay": "co-IP; endogenous proteins in AU-565 and SK-BR-3 cells, serum-starved 24 hr, with or without 100 ng/ml heregulin (HRG) for 4 hr; immunoprecipitation of HER2 and NRF2, respectively, western blot"}, "[2]": {"molecular_target": "constitutively active HER2 (HER2CA, V659E) (human) (UniProt P04626)", "assay": "co-IP; HEK293T cells transiently transfected with HER2CA and FLAG-NRF2 or GFP-NRF2; immunoprecipitation of HER2CA (FLAG-NRF2) or of GFP (GFP-NRF2), western blot"}, "[3]": {"molecular_target": "constitutively active HER2 (HER2CA, V659E) (human) (UniProt P04626)", "assay": "co-IP; data not shown: reciprocal immunoprecipitation of HER2CA from HEK293T cells transfected with HER2CA and GFP-NRF2"}}, "note": "These are yes or no findings as the source states them, for the method shown. Binding seen in cells or lysates may run through a third protein. Some binding calls cover weakened binding; strength is not graded here. For part of these data: Where a sequence is shown, tags or fusion partners need not be part of it.", "data": [{"molecule": "HER2 (endogenous, HER2-amplified breast cancer cells) (from UniProt P04626 23-1255) (receptor)", "values": [{"measurement": "binding", "setting": "[1]", "result": "binds"}]}, {"molecule": "FLAG-NRF2 (protein, UniProt Q16236 1-605) MMDLELPPPGLPSQQDMDLIDILWRQDIDLGVSREVFDFSQRRKEYELEKQKKLEKERQEQLQKEQEKAFFAQLQLDEETGEFLPIQPAQHIQSETSGSANYSQVAHIPKSDALYFDDCMQLLAQTFPFVDDNEVSSATFQSLVPDIPGHIESPVFIATNQAQSPETSVAQVAPVDLDGMQQDIEQVWEELLSIPELQCLNIENDKLVETTMVPSPEAKLTEVDNYHFYSSIPSMEKEVGNCSPHFLNAFEDSFSSILSTEDPNQLTVNSLNSDATVNTDFGDEFYSAFIAEPSISNSMPSPATLSHSLSELLNGPIDVSDLSLCKAFNQNHPESTAEFNDSDSGISLNTSPSVASPEHSVESSSYGDTLLGLSDSEVEELDSAPGSVKQNGPKTPVHSSGDMVQPLSPSQGQSTHVHDAQCENTPEKELPVSPGHRKTPFTKDKHSSRLEAHLTRDELRAKALHIPFPVEKIINLPVVDFNEMMSKEQFNEAQLALIRDIRRRGKNKVAAQNCRKRKLENIVELEQDLDHLKDEKEKLLKEKGENDKSLHLLKKQLSTLYLEVFSMLRDEDGKPYSPSEYSLQQTRDGNVFLVPKSKKPDVKKN", "values": [{"measurement": "binding", "setting": "[2]", "result": "binds"}]}, {"molecule": "GFP-NRF2 (protein, UniProt Q16236 1-605) MMDLELPPPGLPSQQDMDLIDILWRQDIDLGVSREVFDFSQRRKEYELEKQKKLEKERQEQLQKEQEKAFFAQLQLDEETGEFLPIQPAQHIQSETSGSANYSQVAHIPKSDALYFDDCMQLLAQTFPFVDDNEVSSATFQSLVPDIPGHIESPVFIATNQAQSPETSVAQVAPVDLDGMQQDIEQVWEELLSIPELQCLNIENDKLVETTMVPSPEAKLTEVDNYHFYSSIPSMEKEVGNCSPHFLNAFEDSFSSILSTEDPNQLTVNSLNSDATVNTDFGDEFYSAFIAEPSISNSMPSPATLSHSLSELLNGPIDVSDLSLCKAFNQNHPESTAEFNDSDSGISLNTSPSVASPEHSVESSSYGDTLLGLSDSEVEELDSAPGSVKQNGPKTPVHSSGDMVQPLSPSQGQSTHVHDAQCENTPEKELPVSPGHRKTPFTKDKHSSRLEAHLTRDELRAKALHIPFPVEKIINLPVVDFNEMMSKEQFNEAQLALIRDIRRRGKNKVAAQNCRKRKLENIVELEQDLDHLKDEKEKLLKEKGENDKSLHLLKKQLSTLYLEVFSMLRDEDGKPYSPSEYSLQQTRDGNVFLVPKSKKPDVKKN", "values": [{"measurement": "binding", "setting": "[3]", "result": "binds"}]}]}
